Values from PubChem BioAssay AID1259424 (University of Nebraska Medical Center, 2018).

- Assay: 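Find knockdowns that reproduce the expression shifts seen after KSR1 loss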 (primary screen)
- Cell system: human HCT116 colon cancer cells
- Knock-down reagent: siRNA pool against human genes, 50 nM
- Detection: 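Log2 levels of six mRNAs (branched-DNA multiplex), adjusted by two reference genes and the non-targeting median, then scored against the average KSR1 knockdown pattern as Pearson r and euclidean distance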
- Scale: mean correlation with KSR1 profile and KSR1 correlation: higher = expression change more like KSR1 knockdown; mean distance from KSR1 profile: higher = expression change less like KSR1 knockdown
Shown is an unselected part of about 14,000 reagents tested. 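Higher correlation or smaller distance means closer resemblance to KSR1 loss; control wells, including KSR1 knockdowns, recur on many plates.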 Not given: the time to read-out.

gene knocked down	mean correlation with KSR1 profile	mean distance from KSR1 profile	KSR1 correlation, replicate 1	KSR1 correlation, replicate 2	KSR1 correlation, replicate 3
JUN	0.233	1.58	0.518	0.338	0.143
CKS2	0.65	1.91	0.815	0.152	0.0581
DPP3	-0.248	3.51	-0.191	-0.0815	-0.494
MPP1	0.102	2.06	0.686	-0.0707	-0.258
NCOA1	-0.136	2.24	-0.0593	-0.0635	-0.38
FETUB	0.0234	1.36	-0.456	-0.496	0.0193
PKP2	0.16	1.75	0.173	-0.0191	0.132
NCF1C	0.3	2.43	0.218	0.291	0.479
TOP3A	-0.0847	3.28	-0.185	-0.077	0.145
RPS21	-0.686	1.76	-0.275	-0.776	-0.66
TUBAL3	0.667	1.55	0.678	0.702	0.622
MLST8	-0.108	2.63	0.0579	-0.118	-0.341
VAX2	0.3	2.22	0.193	0.467	0.326
IQCN	-0.0135	1.66	0.0189	-0.0595	-0.144
RHOJ	-0.803	3.78	-0.792	-0.793	-0.833
PIP4K2B	0.0565	2.69	0.173	0.35	-0.172
LAMA5	0.14	1.84	-0.185	-0.0504	0.454
CHRD	-0.865	1.84	-0.85	-0.824	-0.905
PTPRN2	-0.293	1.64	-0.462	-0.446	0.0301
KXD1	-0.333	2.31	-0.446	-0.596	-0.257
INHA	-0.0114	2.37	0.0177	0.121	-0.157
TAS2R1	0.441	1.69	0.402	0.509	0.594
CD24	-0.693	2.87	-0.694	-0.715	-0.708
SECTM1	-0.662	2.57	-0.485	-0.574	-0.762
SNIP1	0.45	1.48	0.477	0.475	0.458
PBK	0.0385	1.8	0.458	0.0307	-0.597
FASN	-0.606	3.99	-0.591	-0.635	-0.643
SEMA3G	-0.624	3.25	-0.665	-0.414	-0.643
F2RL3	0.649	1.32	0.519	0.478	0.689
WDR73	0.456	3.24	0.342	0.38	0.267
TK2	-0.278	2.65	-0.334	-0.274	-0.454
HIVEP3	0.0615	2.57	-0.0216	0.0892	-0.0496
SLC25A38	-0.311	2.7	-0.185	-0.432	-0.498
HSD17B4	0.0871	2.26	0.161	-0.0981	-0.11
ATG10	0.0446	2.48	-0.014	-0.0859	0.12
SCN7A	-0.869	2.9	-0.873	-0.847	-0.783
TSR1	0.024	2.6	-0.0731	0.016	0.059
IMMP2L	0.767	2.97	0.636	0.76	0.784
PTPN20	-0.426	1.69	-0.235	-0.211	-0.537
FAM174C	-0.771	7.73	-0.621	-0.625	-0.569
SAFB	-0.485	1.92	-0.512	-0.487	-0.325
GIT1	0.552	2.83	0.499	0.611	0.426
SLC22A8	-0.102	1.58	-0.0272	-0.00334	-0.0307
GPT2	0.014	2.48	0.0237	-0.136	0.0314
SETBP1	-0.447	2.62	-0.241	-0.562	-0.355
CCL13	-0.419	1.27	-0.308	-0.713	-0.0865
RPAP2	0.18	4.58	0.297	0.101	0.152
PLEKHG5	-0.127	2.41	-0.11	-0.114	-0.163
VPS45	0.572	1.63	0.53	0.747	0.0709
NT5C1A	0.572	2.98	0.753	0.685	0.0726

Reformatted: 4 of the entries above
gene knocked down,mean correlation with KSR1 profile,mean distance from KSR1 profile,"KSR1 correlation, replicate 1","KSR1 correlation, replicate 2","KSR1 correlation, replicate 3"
NCF1C,0.3,2.43,0.218,0.291,0.479
TOP3A,-0.0847,3.28,-0.185,-0.077,0.145
RPS21,-0.686,1.76,-0.275,-0.776,-0.66
TUBAL3,0.667,1.55,0.678,0.702,0.622
